PubChem BioAssay AID652259 – Drosophila RNAi Screening Center | 2013
In all, the deposit lists about 22,000 reagents; shown is an unselected part of those that have a named target and a result. In the full data, 233 (1.1%) got an active call. 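Light values are raw, unnormalised plate reads; the ratio scores behind the reporter calls were not deposited.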 Entries without a mark were called inactive. Names joined by + are all predicted targets of the reagent. Not given: the amount of reagent, the time to read-out, the dose of the treatment.

Screen: 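Knock-downs that push a Wingless-driven reporter up or down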 (primary screen)
Cell system: Drosophila clone 8 imaginal disc epithelial cells
Reagent: long dsRNA against Drosophila genes
Challenge: pathway stimulated by co-transfected Wingless expression plasmid
Read-out: 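Firefly luciferase from a tcf-site Wingless reporter, measured alongside co-transfected Renilla luciferase that tracks transfection; pathway stimulated by a Wingless plasmid; the firefly-to-Renilla ratio is not deposited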
Direction: firefly reporter light: higher = more Wg reporter light, before normalisation; Renilla control light: higher = more transfected or surviving cells
Active means: 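Strong candidates differ from their plate mean by at least two out of four per-plate statistical tests; weak candidates meet just one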
Meaning of the calls: active = candidate regulator (raises or lowers reporter); inactive = not a candidate

no.	target	amplicon	reporter change call, replicate 1	firefly reporter light, replicate 1	firefly reporter light, replicate 2	Renilla control light, replicate 1	Renilla control light, replicate 2
1	oys	DRSC05203		20048		11737	
2	oys	DRSC06751		5827		2346	
3	slmb	DRSC17056	Wg reporter activity raised (active)	28007	32889	1172	1816
4	CG32755	DRSC18397		19155		9799	
5	Gr39a	DRSC01841		13200		9749	
6	Gr39a	DRSC01842		15945		9928	
7	Mtp	DRSC03216		8643		2919	
8	CG17598	DRSC20636		2354	8012	977	2331
9	CG33099	DRSC15774		3491	3526	1634	1204
10	CG1304	DRSC20494		22044		10448	
11	Cyp308a1	DRSC20238		27168		14317	
12	CG10026	DRSC02010		2307	5099	1000	3069
13	boly	DRSC21629		4.06e5	4.14e5	1.84e5	1.44e5
14	Ugt36D1	DRSC02600		12213		2104	
15	sloth2 + sloth1	DRSC17922		24480		11904	
16	sloth2 + sloth1	DRSC17923		24982		10699	
17	EMC7	DRSC07162		7075		2372	
18	ms(2)34Fe	DRSC01905		2787	5890	1008	2392
19	CG9981	DRSC20225		17356		6912	
20	CG15905	DRSC06591		8032		2952	
21	Pvf3	DRSC02284		3035	9620	941	2770
22	Pvf3	DRSC02285		2965	6325	918	2442
23	Pvf3	DRSC02286	Wg reporter activity lowered (active)	784	1347	451	1680
24	Pvf3	DRSC02751		3049	5754	597	1824
25	Tcs5	DRSC09774		928	6980	904	2770
26	POLDIP2	DRSC12194		7744		2714	
27	Phax	DRSC07066		2736	8810	1076	3763
28	CG44153	DRSC01118		16560		6730	
29	CG44153	DRSC02228		14098		4538	
30	CG44153	DRSC02229		2668	10130	754	3821
31	CG44153	DRSC02231		2938	5209	1356	3220
32	CG44153	DRSC02233		2393	7265	835	3331
33	CG44153	DRSC02902		2950	7216	1128	3697
34	CG44153	DRSC02903		2304	7664	1379	3668
35	gem	DRSC06093		19238		2983	
36	gem	DRSC06847		2666	7475	656	2043
37	Rab27	DRSC18567		6006	6536	1808	2690
38	Map205	DRSC16732		2336	7939	504	1223
39	NaPi-T	DRSC07476		6400		3008	
40	CG10222	DRSC09714		12336		2800	
41	shep	DRSC08748		3556		876	
42	shep	DRSC09765		2080	9171	1313	2573
43	shep	DRSC09771		14775		3207	
44	CG6418	DRSC10633		1811		1040	
45	RpL34a	DRSC15964		22231		16166	
46	CG3610	DRSC15502		11799		3440	
47	CG1552	DRSC19665		20568		10240	
48	CG13931	DRSC08400		4429		2464	
49	mRpS21	DRSC12965		4517		1221	
50	mRpS21	DRSC21357		3.17e5	3.30e5	1.45e5	1.22e5
51	Acf	DRSC14101		1255	2656	567	997
52	CG13245	DRSC02243		12565		3909	
53	Ilp3	DRSC10168		9136		3651	
54	Ccp84Ae	DRSC12590		20427		5205	
55	sob	DRSC00838		2918	6307	854	739
56	CG10803	DRSC17763		2806	6269	1160	2259
57	CG4669	DRSC10440		5040		1472	
58	CG16719	DRSC10222		4316		1211	
59	CG31226	DRSC21724		2.72e5	3.25e5	95124	89132
60	Fancm	DRSC16348		3597	5398	1394	2442
61	Fhos	DRSC08943		2598		1356	
62	Fhos	DRSC10545		5938		2745	
63	Fhos	DRSC10546		5953		2826	
64	Fhos	DRSC10547		1986	10291	1360	4324
65	CG13720	DRSC08329		912	4515	523	1216
66	Tsp42Ef	DRSC06191		3200	6841	1286	3622
67	apolpp	DRSC17216		1856	3394	720	1305
68	CG32847	DRSC22901		4.33e5	3.90e5	1.90e5	1.28e5
69	CG14692	DRSC14915		16376		4055	
70	CG15097	DRSC06526		17920		5924	
71	CG13694	DRSC00363		2423	6881	1357	2806
72	stv	DRSC09796		8754		1634	
73	stv	DRSC10111		7026		2954	
74	Swt1	DRSC20028		2436	5232	902	1936
75	nht	DRSC01976		4612	9128	1698	4880
76	CG5023	DRSC15697		18160		4843	
77	CG11291	DRSC04097		4532	6213	676	2561
78	eIF6	DRSC04674		14547		3427	
79	BckdhB	DRSC21183		13987		8396	
80	CG33285	DRSC11463		3067		1344	
81	Acsl	DRSC07252		7581		3019	
82	CG33282	DRSC00422		3193	7168	1211	2154
83	CG4631	DRSC02766		6951	9802	1693	5046
84	CG4631	DRSC22194		8.26e5	7.86e5	3.91e5	3.84e5
85	CG9411	DRSC20184		4076	15075	1191	3191
86	Psf1	DRSC08638		21117		7248	
87	CG31224	DRSC15272		3075		885	
88	CG31224	DRSC16290		3808	9444	944	2293
89	CG18745	DRSC15382		12171		4186	
90	eIF3a	DRSC12339		14147		2061	
91	CG15212	DRSC10212		1386	11705	987	3573
92	CG34242	DRSC09185		5428	8.05e5	832	3.53e5
93	CG15144	DRSC02445		2534	4549	820	2129

Sorted by “Renilla control light, replicate 1” (descending): 7 of the entries above.
target	amplicon	reporter change call, replicate 1	firefly reporter light, replicate 1	firefly reporter light, replicate 2	Renilla control light, replicate 1	Renilla control light, replicate 2
sloth2 + sloth1	DRSC17923		24982		10699	
CG9981	DRSC20225		17356		6912	
CG15905	DRSC06591		8032		2952	
EMC7	DRSC07162		7075		2372	
ms(2)34Fe	DRSC01905		2787	5890	1008	2392
Pvf3	DRSC02284		3035	9620	941	2770
Pvf3	DRSC02285		2965	6325	918	2442
